For the assay, the target named is human gp39 coated on Biacore chips (human) (UniProt P29965). The experiment in a line: Biacore, gp39 on chip. On the technique in general: Surface plasmon resonance follows binding to a sensor surface in real time, without labels.

Chains of the proteins cited; added tags and fusions are not shown. Residues count along the entry.
UniProt P29965, residues 47-261: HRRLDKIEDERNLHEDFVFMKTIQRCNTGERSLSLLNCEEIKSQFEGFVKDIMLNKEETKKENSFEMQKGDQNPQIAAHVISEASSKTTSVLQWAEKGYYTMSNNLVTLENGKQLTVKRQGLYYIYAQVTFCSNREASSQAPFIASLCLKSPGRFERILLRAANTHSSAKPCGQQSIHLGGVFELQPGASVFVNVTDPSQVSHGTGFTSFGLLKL

These are yes or no findings as the source states them, for the method shown. Some binding calls cover weakened binding; strength is not graded here.

B1: 106 sFv-Ig (scFv)
scFv: DIQMTQSPASLSASVGETVTITCRASETIYSYLAWYQQKQGRSPQLLVYNAKTLAEGVPSRFSGSGSGTQFSLKINSLQPEDFGSYYCQHHYNTPLTFGTGTKLELKRGGGGSGGGGSGGGGSEVKLVESGGGLVKPGGSLKLSCTTSGFTFNNYAMSWVRQTPEKRLEWVASISSGDSTYYFDSVRGRFTISRDNARNILYLQMSSLRSEDTAMYYCARHYDYDSYAMDYWGQGTSVTVS
notes: VL-linker-VH-human Ig, monomeric; L6 V kappa leader used for secretion; not shown: hinge-CH2-CH3 of human IgG1
Turning to B1, the binding result is listed as “binds”.

The values are drawn from EP1728864A1 (dated 2006).
